These are yes or no findings as the source states them, for the method shown. Binding calls can cover weak binding; strength is not graded here.
Key:
[1] = target: T1, Lactobacillus brevis ATCC 8287 SlpA surface layer protein (Lactobacillus brevis ATCC 8287) (UniProt Q05044); test: SPR (BIAcore 3000), SlpA coupled to a CM5 chip, fibronectin injected at graded concentrations (legend: 1 mM-10 nM), no benzamidine
T1 sequence (looked up): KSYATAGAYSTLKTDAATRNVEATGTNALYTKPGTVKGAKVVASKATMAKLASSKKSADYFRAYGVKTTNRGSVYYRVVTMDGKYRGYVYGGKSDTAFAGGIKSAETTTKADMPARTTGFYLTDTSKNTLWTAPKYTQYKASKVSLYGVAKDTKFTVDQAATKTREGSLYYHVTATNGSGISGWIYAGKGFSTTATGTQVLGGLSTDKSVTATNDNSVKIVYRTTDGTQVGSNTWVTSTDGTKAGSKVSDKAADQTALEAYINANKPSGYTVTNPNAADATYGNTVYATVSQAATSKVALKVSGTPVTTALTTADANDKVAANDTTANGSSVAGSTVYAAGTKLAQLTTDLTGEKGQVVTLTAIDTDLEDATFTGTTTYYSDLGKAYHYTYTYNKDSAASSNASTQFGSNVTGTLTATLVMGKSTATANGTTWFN

Protein sequences, listed by entry. Tags and fused reporters are not part of them. Lines headed by an entry give the natural chain unless they say otherwise; changes in a name come on top.
UniProt P02751: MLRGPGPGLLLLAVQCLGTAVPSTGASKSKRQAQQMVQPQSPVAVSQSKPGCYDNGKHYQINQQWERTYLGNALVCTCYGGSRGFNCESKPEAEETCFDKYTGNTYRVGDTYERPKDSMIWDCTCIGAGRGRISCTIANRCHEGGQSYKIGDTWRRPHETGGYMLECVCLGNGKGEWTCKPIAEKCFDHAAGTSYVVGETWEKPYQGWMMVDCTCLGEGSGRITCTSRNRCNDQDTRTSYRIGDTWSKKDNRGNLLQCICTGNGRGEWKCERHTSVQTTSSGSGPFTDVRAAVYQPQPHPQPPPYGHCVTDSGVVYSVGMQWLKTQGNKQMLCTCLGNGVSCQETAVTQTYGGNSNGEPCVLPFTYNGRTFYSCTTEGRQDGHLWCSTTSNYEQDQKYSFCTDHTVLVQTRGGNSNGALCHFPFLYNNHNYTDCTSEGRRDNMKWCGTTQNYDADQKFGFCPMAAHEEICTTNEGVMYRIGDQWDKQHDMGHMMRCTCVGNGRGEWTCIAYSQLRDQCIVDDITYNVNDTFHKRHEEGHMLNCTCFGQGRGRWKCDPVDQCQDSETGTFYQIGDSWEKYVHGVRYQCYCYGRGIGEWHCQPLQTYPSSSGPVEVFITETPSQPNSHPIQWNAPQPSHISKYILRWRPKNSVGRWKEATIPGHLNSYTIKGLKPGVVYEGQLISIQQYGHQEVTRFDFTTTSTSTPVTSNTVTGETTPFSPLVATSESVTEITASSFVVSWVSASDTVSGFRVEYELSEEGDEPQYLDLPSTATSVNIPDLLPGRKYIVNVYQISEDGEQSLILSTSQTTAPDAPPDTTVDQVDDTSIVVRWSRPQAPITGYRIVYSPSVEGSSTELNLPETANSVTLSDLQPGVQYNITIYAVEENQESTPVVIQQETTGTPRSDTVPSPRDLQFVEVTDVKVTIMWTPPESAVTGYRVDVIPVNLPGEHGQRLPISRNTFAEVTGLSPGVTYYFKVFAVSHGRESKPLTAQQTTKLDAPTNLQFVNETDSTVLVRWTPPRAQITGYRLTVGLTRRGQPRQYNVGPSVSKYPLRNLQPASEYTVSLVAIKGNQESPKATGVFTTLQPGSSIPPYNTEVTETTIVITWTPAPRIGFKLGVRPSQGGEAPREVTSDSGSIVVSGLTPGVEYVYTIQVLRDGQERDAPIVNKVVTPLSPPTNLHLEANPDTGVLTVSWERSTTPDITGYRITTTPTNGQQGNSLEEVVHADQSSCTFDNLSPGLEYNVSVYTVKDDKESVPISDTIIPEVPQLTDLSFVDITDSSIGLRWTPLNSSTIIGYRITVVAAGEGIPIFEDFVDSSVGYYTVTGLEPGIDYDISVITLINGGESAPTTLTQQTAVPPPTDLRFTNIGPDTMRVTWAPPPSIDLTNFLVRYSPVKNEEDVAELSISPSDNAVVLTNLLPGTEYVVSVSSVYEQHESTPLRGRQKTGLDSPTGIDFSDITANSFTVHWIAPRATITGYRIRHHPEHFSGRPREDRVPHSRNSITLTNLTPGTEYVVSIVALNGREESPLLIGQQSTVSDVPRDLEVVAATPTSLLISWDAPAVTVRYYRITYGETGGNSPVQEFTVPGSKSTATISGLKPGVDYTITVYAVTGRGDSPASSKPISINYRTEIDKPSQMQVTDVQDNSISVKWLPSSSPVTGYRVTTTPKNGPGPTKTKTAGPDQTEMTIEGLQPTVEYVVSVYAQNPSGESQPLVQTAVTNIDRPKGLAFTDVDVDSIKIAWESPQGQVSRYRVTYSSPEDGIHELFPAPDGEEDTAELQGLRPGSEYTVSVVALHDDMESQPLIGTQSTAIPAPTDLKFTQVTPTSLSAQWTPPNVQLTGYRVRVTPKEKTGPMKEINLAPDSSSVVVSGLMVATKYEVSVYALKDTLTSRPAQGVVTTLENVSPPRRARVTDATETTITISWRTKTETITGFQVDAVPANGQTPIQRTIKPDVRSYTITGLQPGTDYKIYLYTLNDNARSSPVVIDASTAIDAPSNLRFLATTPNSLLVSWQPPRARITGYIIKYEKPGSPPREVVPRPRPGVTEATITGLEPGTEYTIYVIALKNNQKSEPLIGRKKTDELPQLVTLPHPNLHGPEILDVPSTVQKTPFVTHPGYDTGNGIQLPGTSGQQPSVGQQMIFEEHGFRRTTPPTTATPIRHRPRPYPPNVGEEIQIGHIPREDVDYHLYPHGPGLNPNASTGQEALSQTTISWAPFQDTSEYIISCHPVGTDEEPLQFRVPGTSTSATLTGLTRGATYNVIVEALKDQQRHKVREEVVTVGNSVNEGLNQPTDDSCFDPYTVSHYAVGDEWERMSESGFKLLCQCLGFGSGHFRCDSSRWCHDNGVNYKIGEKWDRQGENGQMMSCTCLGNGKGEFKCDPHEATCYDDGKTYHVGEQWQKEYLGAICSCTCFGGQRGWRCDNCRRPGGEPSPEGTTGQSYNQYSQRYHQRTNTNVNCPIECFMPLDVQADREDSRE

[2] = target: T1, Lactobacillus brevis ATCC 8287 SlpA surface layer protein (Lactobacillus brevis ATCC 8287); test: SPR (BIAcore 3000), SlpA coupled to a CM5 chip, fibronectin injected at graded concentrations (legend: 1 mM-10 nM), in the presence of 1 mM benzamidine
[3] = target: T1, Lactobacillus brevis ATCC 8287 SlpA surface layer protein (Lactobacillus brevis ATCC 8287); test: SPR (BIAcore 3000), SlpA immobilised
[4] = target: T1, Lactobacillus brevis ATCC 8287 SlpA surface layer protein (Lactobacillus brevis ATCC 8287); test: SPR sensorgrams, SlpA immobilised, fibronectin 1 mM-10 nM as printed

Measured: binding

Fibronectin (human plasma) (from UniProt P02751)
binds: [1] | [2] | [3] | [4]

Source: patent US20090214662A1 (UNIVERSITY OF MARYLAND BALTIMORE, published 2009)
